{"sequences": {"note": "Chains of the proteins cited; added tags and fusions are not shown.", "UniProt P53350, whole entry, looked up": "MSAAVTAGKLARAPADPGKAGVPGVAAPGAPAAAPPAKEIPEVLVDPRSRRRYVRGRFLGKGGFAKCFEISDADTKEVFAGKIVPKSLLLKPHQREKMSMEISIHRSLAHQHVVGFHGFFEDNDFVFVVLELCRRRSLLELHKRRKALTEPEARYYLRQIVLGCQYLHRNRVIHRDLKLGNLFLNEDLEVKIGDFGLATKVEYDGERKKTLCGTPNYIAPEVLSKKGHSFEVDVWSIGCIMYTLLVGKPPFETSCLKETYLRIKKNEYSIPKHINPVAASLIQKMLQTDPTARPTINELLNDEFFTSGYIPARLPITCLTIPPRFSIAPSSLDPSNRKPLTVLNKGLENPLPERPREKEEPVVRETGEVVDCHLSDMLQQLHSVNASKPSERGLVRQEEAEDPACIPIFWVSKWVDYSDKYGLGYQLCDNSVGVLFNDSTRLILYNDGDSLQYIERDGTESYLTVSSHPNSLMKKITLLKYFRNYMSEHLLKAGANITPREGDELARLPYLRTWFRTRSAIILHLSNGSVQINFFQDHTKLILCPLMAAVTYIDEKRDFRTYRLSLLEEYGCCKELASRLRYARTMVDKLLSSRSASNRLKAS"}, "source": "PubChem BioAssay AID720504", "about": "(National Center for Advancing Translational Sciences (NCATS), 2013)", "note": "In all, about 360,000 compounds went through this assay and about 10,000 (2.8%) were called active. Inconclusive results, whose numbers are uncertain, are shown with a selection of clear calls. Calls follow the shape of the dose curve; as a rule, active = well fitted inhibition curve with a large enough effect; inconclusive = small, poorly fitted or top-dose-only effect; inactive = flat fitted curve, though single readings scatter. Potencies of inconclusive entries are doubtful fits and often do not repeat. % is scaled to controls: 0 for no effect and ±100 for the full control effect; potency is read from the fitted curve at half-maximal effect.", "data": [{"target": "Serine/threonine-protein kinase PLK1 (Homo sapiens) (UniProt P53350)", "test": "qHTS for Inhibitors of PLK1-PDB (polo-like kinase 1 - polo-box domain): Primary Screen; also: nearly all actives have a fitted effect of over 65% in size; as to max response, negative = inhibition: series mostly up to about 57 µM", "details": "Plk1 PBD binding of FITC phosphopeptide, fluorescence polarization", "values": [{"smiles": "Cc1cc2nc(C3CCCN(C(=O)NCc4ccccc4)C3)[nH]c2cc1C", "note": "(configuration not stated)", "Potency": "inconclusive: 29.9 µM [inhibitor, single point]"}, {"smiles": "Cc1ccc(Nc2nc(NCCO)nc3c2cnn3C)cc1Cl", "Potency": "active: 18.9 µM"}, {"smiles": "CN1CCSc2ccc(C(=O)Nc3cc(F)ccc3F)cc21", "Potency": "inconclusive: 33.6 µM [inhibitor, partial curve, poor fit]"}, {"smiles": "Cc1ccc([N+](=O)[O-])cc1S(=O)(=O)Nc1ccc(O)c(Sc2ncn[nH]2)c1", "Potency": "inconclusive: 26.7 µM [inhibitor, partial curve]"}, {"smiles": "CCN(CC)C(=O)CC(c1ccccc1)c1ccco1", "note": "(configuration not stated)", "max response, negative = inhibition": "inactive: -6.65%"}, {"smiles": "COc1cccc(C2/C(=C(/O)c3ccccc3)C(=O)C(=O)N2Cc2ccco2)c1", "note": "(configuration not stated)", "max response, negative = inhibition": "inactive: -7.11%"}, {"smiles": "O=C(CSc1ccccc1)NCC(c1ccco1)N1CCCCC1", "note": "(configuration not stated)", "Potency": "inconclusive: 26.7 µM [inhibitor, single point]"}, {"smiles": "COc1cc2c(cc1OC)-c1cc(Nc3ccc4c(c3)OCCO4)nc(=O)n1CC2", "Potency": "inconclusive: 8.44 µM [inhibitor, partial curve]"}, {"smiles": "Cc1c(N=C2C=CC(=O)c3ccccc32)c(=O)n(-c2ccccc2)n1C", "Potency": "active: 18.9 µM"}, {"smiles": "O=C1NC(=S)S/C1=C\\c1ccc(SCc2ccco2)o1", "Potency": "active: 2.99 µM"}, {"smiles": "COc1ccc(CCNC(=O)COC(=O)CSc2ccc(C(N)=O)cc2[N+](=O)[O-])cc1OC", "Potency": "inconclusive: 29.9 µM [inhibitor, partial curve]"}, {"smiles": "Cc1ccnc(SCc2cc(=O)c(OC(=O)c3cccs3)co2)n1", "max response, negative = inhibition": "inactive: -12.8%"}, {"smiles": "CSc1nnnn1-c1ccc(Cl)cc1", "max response, negative = inhibition": "inactive: 2.6%"}, {"smiles": "COc1cc(/C=C2/C(=O)NN(c3ccc(Cl)c(Cl)c3)C2=O)cc([N+](=O)[O-])c1O", "Potency": "active: 11.9 µM"}, {"smiles": "COc1cc(OC)cc(C(=O)NC(=S)Nc2nnn(C)n2)c1", "Potency": "inconclusive: 29.9 µM [inhibitor, partial curve]"}, {"smiles": "Cc1ccc(NC(=S)C2=C(O)c3sccc3N(C)S2(=O)=O)cc1", "Potency": "inconclusive: 33.6 µM [inhibitor, single point]"}, {"smiles": "CC(=O)N1c2ccc(S(=O)(=O)N3CCCC3)cc2CC1C(=O)NCc1ccc(OC(C)C)cc1", "note": "(configuration not stated)", "Potency": "inconclusive: 21.2 µM [inhibitor, single point]"}, {"smiles": "S=c1[nH]nc(-c2cccc(Cl)c2)n1CCN1CCCCC1", "Potency": "inconclusive: 26.7 µM [inhibitor, partial curve]"}, {"smiles": "COc1ccc(CC(=O)OCc2cc3ccc(C)cc3[nH]c2=O)cc1", "Potency": "inconclusive: 29.9 µM [inhibitor, single point]"}, {"smiles": "CCc1ccc(/C=C2/SC(N3CCOCC3)=NC2=O)cc1", "Potency": "inconclusive: 26.7 µM [inhibitor, single point]"}, {"smiles": "CCC(=O)N1CCC2(CC1)Oc1ccc(Cl)cc1C(=O)C21CC(c2ccccc2)=NO1", "note": "(configuration not stated)", "max response, negative = inhibition": "inactive: -22%"}, {"smiles": "COc1cc(CN2CCSCC2)c([N+](=O)[O-])cc1OC", "max response, negative = inhibition": "inactive: -8.07%"}, {"smiles": "Cc1nc(N/N=C/c2ccccn2)sc1C", "max response, negative = inhibition": "inactive: -8.05%"}, {"smiles": "CCCN1/C(=C(\\C#N)C2=NS(=O)(=O)c3ccccc32)N(C)c2ccccc21", "max response, negative = inhibition": "inactive: 1.57%"}, {"smiles": "CC(C)C[C@H](N)c1nnc(S(=O)(=O)Cc2ccc(F)cc2)o1", "Potency": "inconclusive: 15 µM [inhibitor, partial curve]"}, {"smiles": "Cc1ccc2c(c1)[C@H]1[C@H](CO2)[C@H](c2ccccc2)[C@]2(C)C(=O)N(C)CC(=O)N12", "Potency": "inconclusive: 21.2 µM [inhibitor, partial curve]"}, {"smiles": "N#Cc1c(-c2ccco2)cc(-c2ccc(F)cc2)nc1N", "Potency": "inconclusive: 29.9 µM [inhibitor, partial curve]"}, {"smiles": "Cc1ccc(C)c2nc(Cl)c(C3NC(=O)c4ccccc4N3)cc12", "note": "(configuration not stated)", "max response, negative = inhibition": "inactive: 3.38%"}, {"smiles": "COc1cccc(-n2c(N)c(-c3nc4ccccc4[nH]3)sc2=S)c1", "Potency": "active: 26.7 µM"}, {"smiles": "CCOc1ccc(Nc2n[nH]c(=S)s2)cc1", "Potency": "inconclusive: 29.9 µM [inhibitor, partial curve]"}, {"smiles": "CCc1cccc(NC(=O)CSC2=NS(=O)(=O)c3ccccc32)c1", "Potency": "active: 10.6 µM"}, {"smiles": "Cc1cc(NC(=O)c2ccc(C(C)(C)C)cc2)no1", "Potency": "inconclusive: 6.7 µM [inhibitor, single point]"}, {"smiles": "CCC(C)c1ccc(OCC(=O)Nc2ccc(CN3CCOCC3)cc2)cc1", "note": "(configuration not stated)", "max response, negative = inhibition": "inactive: -2.18%"}, {"smiles": "CC(/C=C1\\SC(=S)N(CC(=O)O)C1=O)=C\\c1ccccc1", "Potency": "inconclusive: 26.7 µM [inhibitor, single point]"}, {"smiles": "COc1ccc(-c2sc(Nc3ccccc3)n[n+]2-c2ccccc2)cc1Br", "Potency": "inconclusive: 26.7 µM [inhibitor, single point]"}, {"smiles": "Cc1cc(/C=C(\\C#N)C(=O)O)c(C)n1CC1CCCO1", "note": "(configuration not stated)", "Potency": "active: 2.99 µM"}, {"smiles": "Cc1c2cnn(CC(=O)Nc3c(F)c(F)cc(F)c3F)c(=O)c2c(C)n1Cc1ccccc1F", "Potency": "inconclusive: 16.8 µM [inhibitor, partial curve]"}, {"smiles": "C/C(O)=c1/ccc2cccc3nc(C)nc1c23", "Potency": "inconclusive: 23.8 µM [inhibitor, partial curve]"}, {"smiles": "CCc1ccccc1NC(=O)CSC1=C(C#N)C(c2ccc(O)c(OC)c2)C2=C(CCCC2=O)N1", "note": "(configuration not stated)", "Potency": "active: 10.6 µM"}, {"smiles": "Cc1cc(NS(=O)(=O)c2ccc(NC(=O)COc3cc(C)c(Cl)c(C)c3)cc2)no1", "Potency": "inconclusive: 26.7 µM [inhibitor, single point]"}, {"smiles": "Cc1ccc(-c2cc(-c3ccc(Cl)cc3)c(C#N)c(N)n2)o1", "Potency": "active: 21.2 µM"}, {"smiles": "CCOC(=O)C[C@H]1c2ccc(C(F)(F)F)cc2S(=O)(=O)N1c1ccccc1", "Potency": "inconclusive: 26.7 µM [inhibitor, partial curve]"}, {"smiles": "COc1ccc(NS(=O)(=O)c2cccc(C(=O)NNC(=O)c3cncc(Br)c3)c2)cc1", "max response, negative = inhibition": "inactive: 2.59%"}, {"smiles": "NNC(=O)C(Cc1cnc[nH]1)NC(=O)OCc1ccccc1", "note": "(configuration not stated)", "Potency": "inconclusive: 26.7 µM [inhibitor, single point]"}, {"smiles": "Cc1ccc(N=C2NC(=O)/C(=C/c3cccnc3)S2)c(C)c1", "Potency": "inconclusive: 33.6 µM [inhibitor, partial curve]"}, {"smiles": "CCN1C(=O)/C(=C2\\C=Cc3ccccc3N2CC)SC1=S", "max response, negative = inhibition": "inactive: 1.12%"}, {"smiles": "CCC(C(=O)Nc1ccc(N2CCOCC2)c(S(=O)(=O)Nc2ccccc2OC)c1)c1ccccc1", "note": "(configuration not stated)", "Potency": "inconclusive: 33.6 µM [inhibitor, single point]"}, {"smiles": "O=C1c2ccccc2C(=O)c2c1ccc(O)c2O", "Potency": "inconclusive: 23.8 µM [inhibitor, partial curve]"}, {"smiles": "Nc1nc(N)nc(-c2ccccn2)n1", "max response, negative = inhibition": "inactive: -2.37%"}, {"smiles": "COC(=O)[C@H](C)NC(=O)c1cc2c(cn1)[nH]c1ccccc12", "Potency": "active: 1.34 µM"}, {"smiles": "Cc1cccc(N=C2N=C(N)c3ccccc32)c1", "max response, negative = inhibition": "inactive: -6.36%"}, {"smiles": "COc1ccc2[nH]c3c(c2c1)CCN1C(=O)N([C@@H](C)C(=O)NC2CCN(Cc4ccccc4)CC2)C(=O)[C@]31C", "max response, negative = inhibition": "inactive: 3.37%"}, {"smiles": "Cc1noc(C)c1CSc1nnnn1-c1ccc(Cl)cc1", "Potency": "inconclusive: 21.2 µM [inhibitor, partial curve]"}, {"smiles": "CC1(C(=O)NS(=O)(=O)c2ccc3ccccc3c2)CCN1C(=O)C1(c2ccc(Cl)cc2)CCC1", "note": "(configuration not stated)", "Potency": "active: 42.3 µM"}, {"smiles": "COc1ccc(OCC(=O)NNC(=S)NC(=O)c2ccc([N+](=O)[O-])cc2)cc1", "Potency": "active: 23.8 µM"}, {"smiles": "Cc1ccc([C@@H]2CC=C(C(=O)O)[C@H](c3cccc(Cl)c3)N2S(=O)(=O)c2ccc(C)cc2)cc1", "Potency": "inconclusive: 33.6 µM [inhibitor, single point]"}, {"smiles": "COc1ccc(C(=S)N2CCOCC2)cc1OC(=O)c1ccccc1Cl", "Potency": "active: 18.9 µM"}, {"smiles": "O=C(Nc1cccc(C(F)(F)F)c1)C(Sc1ncnc2ccccc12)c1ccccc1", "note": "(configuration not stated)", "Potency": "inconclusive: 9.47 µM [inhibitor, partial curve]"}, {"smiles": "COc1cc(/C=N/NC(=O)CC2(C)OCCCO2)ccc1OCc1ccccc1", "Potency": "inconclusive: 10.6 µM [inhibitor, partial curve]"}, {"smiles": "O=C(CCc1c[nH]c2ccccc12)NCc1ccncc1", "max response, negative = inhibition": "inactive: -5.86%"}, {"smiles": "COc1ccccc1Nc1ccc([N+](=O)[O-])cc1N", "Potency": "active: 26.7 µM"}, {"smiles": "C=CCOC(=O)C1=C[C@@H](c2ccccc2)[C@H](CCCO)[C@@H](OCC)O1", "Potency": "inconclusive: 37.7 µM [inhibitor, partial curve]"}, {"smiles": "Cc1nc(C(F)(F)F)ccc1C(=O)N1CCC1(C)C(=O)NS(C)(=O)=O", "note": "(configuration not stated)", "max response, negative = inhibition": "inactive: -2.19%"}, {"smiles": "C/C(=N\\Nc1nc2ccccc2s1)c1ccc(Br)s1", "max response, negative = inhibition": "inactive: -3.99%"}, {"smiles": "O=C(NC1CCCC1)C(c1ccccc1F)N(C(=O)c1ccco1)C1CCCC1", "note": "(configuration not stated)", "max response, negative = inhibition": "inactive: -8.46%"}, {"smiles": "COc1ccccc1NC(=O)/C=C\\C(=O)O", "Potency": "inconclusive: 29.9 µM [inhibitor, partial curve]"}, {"smiles": "O=[N+]([O-])c1ccc(Sc2nnnn2-c2ccccc2)c(Cl)c1", "max response, negative = inhibition": "inactive: -17.8%"}, {"smiles": "O=C(N/N=C/c1c(O)n(-c2ccc(Cl)cn2)c(=O)c2ccccc12)C1CC1", "Potency": "inconclusive: 29.9 µM [inhibitor, single point]"}, {"smiles": "COCCn1nnnc1C(c1ccccc1)N1CCN(C(=O)c2ccco2)CC1", "note": "(configuration not stated)", "Potency": "inconclusive: 26.7 µM [inhibitor, single point]"}, {"smiles": "O=C(O)COc1ccccc1/C=N/NC(=O)CNC(=O)c1ccc(F)cc1", "Potency": "active: 8.44 µM"}, {"smiles": "N=C1/C(=C\\c2ccc(SCc3ccccc3)o2)C(=O)N=C2SC(CC(=O)N3CCOCC3)=NN12", "Potency": "inconclusive: 21.2 µM [inhibitor, partial curve]"}, {"smiles": "Cc1nc(N)sc1C(=O)N1N=N1", "max response, negative = inhibition": "inconclusive: -32.7% [inhibitor]"}]}]}
